B1: anti-Flt1-EBPP[A1G4I1]24 (designed binder)
chain: GNQWFIVPAGGVPAAGVPAGGVPAGGVPAIGVPAGGVPAGGVPAAGVPAGGVPAGGVPAIGVPAGGVPAGGVPAAGVPAGGVPAGGVPAIGVPAGGVPAGGVPAAGVPAGGVPAGGVPAIGVPAGGVPAGGVPAAGVPAGGVPAGGVPAIGVPAGGVPAGGVPAAGVPAGGVPAGGVPAIGVPAGGVPAGGVPAAGVPAGGVPAGGVPAIGVPAGGVPAGGVPAAGVPAGGVPAGGVPAIGVPAGGVPAGGVPAAGVPAGGVPAGGVPAIGVPAGGVPAGGVPAAGVPAGGVPAGGVPAIGVPAGGVPAGGVPAAGVPAGGVPAGGVPAIGVPAGGVPAGGVPAAGVPAGGVPAGGVPAIGVPAGGVPAGGVPAAGVPAGGVPAGGVPAIGVPAGGVPAGGVPAAGVPAGGVPAGGVPAIGVPAGGVPAGGVPAAGVPAGGVPAGGVPAIGVPAGGVPAGGVPAAGVPAGGVPAGGVPAIGVPAGGVPAGGVPAAGVPAGGVPAGGVPAIGVPAGGVPAGGVPAAGVPAGGVPAGGVPAIGVPAGGVPAGGVPAAGVPAGGVPAGGVPAIGVPAGGVPAGGVPAAGVPAGGVPAGGVPAIGVPAGGVPAGGVPAAGVPAGGVPAGGVPAIGVPAGGVPAGGVPAAGVPAGGVPAGGVPAIGVPAGGVPAGGVPAAGVPAGGVPAGGVPAIGVPAGGVPAGGVPAAGVPAGGVPAGGVPAIGVPAGG
B2: anti-Flt1-EBPP[A1G4I1]12 (designed binder)
chain: GNQWFIVPAGGVPAAGVPAGGVPAGGVPAIGVPAGGVPAGGVPAAGVPAGGVPAGGVPAIGVPAGGVPAGGVPAAGVPAGGVPAGGVPAIGVPAGGVPAGGVPAAGVPAGGVPAGGVPAIGVPAGGVPAGGVPAAGVPAGGVPAGGVPAIGVPAGGVPAGGVPAAGVPAGGVPAGGVPAIGVPAGGVPAGGVPAAGVPAGGVPAGGVPAIGVPAGGVPAGGVPAAGVPAGGVPAGGVPAIGVPAGGVPAGGVPAAGVPAGGVPAGGVPAIGVPAGGVPAGGVPAAGVPAGGVPAGGVPAIGVPAGGVPAGGVPAAGVPAGGVPAGGVPAIGVPAGGVPAGGVPAAGVPAGGVPAGGVPAIGVPAGG
B3: anti-Flt1-EBPP[A1G4I1]6 (designed binder)
chain: GNQWFIVPAGGVPAAGVPAGGVPAGGVPAIGVPAGGVPAGGVPAAGVPAGGVPAGGVPAIGVPAGGVPAGGVPAAGVPAGGVPAGGVPAIGVPAGGVPAGGVPAAGVPAGGVPAGGVPAIGVPAGGVPAGGVPAAGVPAGGVPAGGVPAIGVPAGGVPAGGVPAAGVPAGGVPAGGVPAIGVPAGG
B4: anti-Flt1-EBPP[A1G4I1]3 (designed binder)
chain: GNQWFIVPAGGVPAAGVPAGGVPAGGVPAIGVPAGGVPAGGVPAAGVPAGGVPAGGVPAIGVPAGGVPAGGVPAAGVPAGGVPAGGVPAIGVPAGG
B5: anti-Flt1-EBPP[E1G4I1]12-EBPP[G1A3F2]12 (designed binder)
chain: GNQWFIVPAGGVPAEGVPAGGVPAGGVPAIGVPAGGVPAGGVPAEGVPAGGVPAGGVPAIGVPAGGVPAGGVPAEGVPAGGVPAGGVPAIGVPAGGVPAGGVPAEGVPAGGVPAGGVPAIGVPAGGVPAGGVPAEGVPAGGVPAGGVPAIGVPAGGVPAGGVPAEGVPAGGVPAGGVPAIGVPAGGVPAGGVPAEGVPAGGVPAGGVPAIGVPAGGVPAGGVPAEGVPAGGVPAGGVPAIGVPAGGVPAGGVPAEGVPAGGVPAGGVPAIGVPAGGVPAGGVPAEGVPAGGVPAGGVPAIGVPAGGVPAGGVPAEGVPAGGVPAGGVPAIGVPAGGVPAGGVPAEGVPAGGVPAGGVPAIGVPAGGVPAAGVPAFGVPAAGVPAGGVPAAGVPAFGVPAAGVPAFGVPAAGVPAGGVPAAGVPAFGVPAAGVPAFGVPAAGVPAGGVPAAGVPAFGVPAAGVPAFGVPAAGVPAGGVPAAGVPAFGVPAAGVPAFGVPAAGVPAGGVPAAGVPAFGVPAAGVPAFGVPAAGVPAGGVPAAGVPAFGVPAAGVPAFGVPAAGVPAGGVPAAGVPAFGVPAAGVPAFGVPAAGVPAGGVPAAGVPAFGVPAAGVPAFGVPAAGVPAGGVPAAGVPAFGVPAAGVPAFGVPAAGVPAGGVPAAGVPAFGVPAAGVPAFGVPAAGVPAGGVPAAGVPAFGVPAAGVPAFGVPAAGVPAGGVPAAGVPAFG
B6: anti-Flt1-EBPP[E1G4I1]12-EBPP[G1A3F2]24 (designed binder)
chain: GNQWFIVPAGGVPAEGVPAGGVPAGGVPAIGVPAGGVPAGGVPAEGVPAGGVPAGGVPAIGVPAGGVPAGGVPAEGVPAGGVPAGGVPAIGVPAGGVPAGGVPAEGVPAGGVPAGGVPAIGVPAGGVPAGGVPAEGVPAGGVPAGGVPAIGVPAGGVPAGGVPAEGVPAGGVPAGGVPAIGVPAGGVPAGGVPAEGVPAGGVPAGGVPAIGVPAGGVPAGGVPAEGVPAGGVPAGGVPAIGVPAGGVPAGGVPAEGVPAGGVPAGGVPAIGVPAGGVPAGGVPAEGVPAGGVPAGGVPAIGVPAGGVPAGGVPAEGVPAGGVPAGGVPAIGVPAGGVPAGGVPAEGVPAGGVPAGGVPAIGVPAGGVPAAGVPAFGVPAAGVPAGGVPAAGVPAFGVPAAGVPAFGVPAAGVPAGGVPAAGVPAFGVPAAGVPAFGVPAAGVPAGGVPAAGVPAFGVPAAGVPAFGVPAAGVPAGGVPAAGVPAFGVPAAGVPAFGVPAAGVPAGGVPAAGVPAFGVPAAGVPAFGVPAAGVPAGGVPAAGVPAFGVPAAGVPAFGVPAAGVPAGGVPAAGVPAFGVPAAGVPAFGVPAAGVPAGGVPAAGVPAFGVPAAGVPAFGVPAAGVPAGGVPAAGVPAFGVPAAGVPAFGVPAAGVPAGGVPAAGVPAFGVPAAGVPAFGVPAAGVPAGGVPAAGVPAFGVPAAGVPAFGVPAAGVPAGGVPAAGVPAFGVPAAGVPAFGVPAAGVPAGGVPAAGVPAFGVPAAGVPAFGVPAAGVPAGGVPAAGVPAFGVPAAGVPAFGVPAAGVPAGGVPAAGVPAFGVPAAGVPAFGVPAAGVPAGGVPAAGVPAFGVPAAGVPAFGVPAAGVPAGGVPAAGVPAFGVPAAGVPAFGVPAAGVPAGGVPAAGVPAFGVPAAGVPAFGVPAAGVPAGGVPAAGVPAFGVPAAGVPAFGVPAAGVPAGGVPAAGVPAFGVPAAGVPAFGVPAAGVPAGGVPAAGVPAFGVPAAGVPAFGVPAAGVPAGGVPAAGVPAFGVPAAGVPAFGVPAAGVPAGGVPAAGVPAFGVPAAGVPAFGVPAAGVPAGGVPAAGVPAFG

Protein sequences, listed by entry. Tags and fused reporters are not part of them. Lines headed by an entry give the natural chain unless they say otherwise; changes in a name come on top. Residues count along the entry.
UniProt P17948, residues 27-687: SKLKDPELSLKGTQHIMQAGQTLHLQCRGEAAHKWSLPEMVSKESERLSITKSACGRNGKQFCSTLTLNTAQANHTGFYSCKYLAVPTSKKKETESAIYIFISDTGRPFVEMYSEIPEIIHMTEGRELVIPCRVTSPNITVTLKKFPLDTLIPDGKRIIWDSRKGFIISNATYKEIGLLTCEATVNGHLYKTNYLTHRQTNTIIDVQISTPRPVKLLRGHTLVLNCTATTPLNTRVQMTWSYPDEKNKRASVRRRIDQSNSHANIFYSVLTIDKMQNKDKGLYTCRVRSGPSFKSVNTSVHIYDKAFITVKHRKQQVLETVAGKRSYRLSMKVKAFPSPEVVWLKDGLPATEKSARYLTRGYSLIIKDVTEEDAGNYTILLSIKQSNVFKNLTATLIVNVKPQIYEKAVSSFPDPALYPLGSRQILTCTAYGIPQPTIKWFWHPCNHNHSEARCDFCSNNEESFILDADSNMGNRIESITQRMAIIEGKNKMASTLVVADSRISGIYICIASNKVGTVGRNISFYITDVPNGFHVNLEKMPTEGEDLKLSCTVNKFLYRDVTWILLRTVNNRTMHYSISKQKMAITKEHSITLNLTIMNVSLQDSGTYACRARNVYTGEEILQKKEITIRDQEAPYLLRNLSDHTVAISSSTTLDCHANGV

Results are given in words; binding and its absence hold for the method and conditions named. Some binding calls cover weakened binding; strength is not graded here.

In the first assay the target is recombinant human Flt1-Fc chimeric protein (human) (UniProt P17948). The experiment in a line: competition ELISA: Flt1-Fc pre-incubated with polypeptide, added to VEGF165-coated wells. On the technique in general: ELISA stands for enzyme-linked immunosorbent assay.
On to B1, for which the binding result was “binds”.

For the molecule B2, the binding result is listed as “binds”.

On to B3, for which the binding entry is “binds”.

In the case of B4, the binding result is given as “binds”.

For another assay the target is unchanged. The experiment in a line: competition ELISA (FIG. 11).
For B1, the binding result is listed as “binds”.

As to B2, the binding entry is “binds”.

On to B3, for which the binding entry is on record as “binds”.

Regarding B4, the binding result is “binds”.

The target is the same in another assay. The experiment in a line: competition ELISA: Flt1-Fc pre-incubated with micelle-forming polypeptide, added to VEGF165-coated wells.
Consider B5, for which the binding entry is recorded as “binds”.

Take B6: the binding result was “binds”.

For the origin of these results see patent publication US20180208642A1.
